Source: PubChem BioAssay AID1159578 (Peter MacCallum Cancer Centre, 2015)

- Purpose: 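Genome-wide hunt for genes controlling movement of lymphatic endothelial cells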 (primary screen)
- Cell system: human lymphatic endothelial cells
- Knock-down reagent: siRNA pool against human genes, 40 nM
- Duration: 48 h after transfection
- Measured: 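High-content imaging of dye-stained cells in a scratch assay measures filled wound area and nuclei per well; duplicate means given as ratio to mock and robust z-score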
- Direction: migration robust z-score: higher = faster migration into the scratch; migration relative to mock: higher = more scratch area covered than mock; nuclei per well: higher = more cells in the well
- Call rule: 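Migration changed when robust z exceeds 2 or falls below -2 and mean nuclei number is at least 3300; otherwise not called changed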
- Calls: active = migration changed; inactive = no migration change, or too few cells
In all, the deposit lists about 18,000 reagents; below is a part drawn at random. Over the whole deposit, about 1,030 (5.7%) are marked active. 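Inactive calls also include pools with fewer than 3300 nuclei, whose migration was not assessed.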 Raw values are not corrected between plates. The numbers tell different reagents against one gene apart.

gene symbol	reagent no.	migration robust z-score	migration class with cell-count check	migration relative to mock	nuclei per well, duplicate mean	Outcome
SPART (spartin)	1	1.42	migration z between -2 and 2; enough cells	1.25	5832	inactive
ZNF786 (zinc finger protein 786)	1	1.01	migration z between -2 and 2; enough cells	1.15	5185	inactive
PTPN13 (protein tyrosine phosphatase non-receptor type 13)	1	-0.73	migration z between -2 and 2; enough cells	0.66	6364	inactive
RHBDD2 (rhomboid domain containing 2)	1	-0.56	migration z between -2 and 2; enough cells	0.74	5995	inactive
RXRG (retinoid X receptor gamma)	1	0.29	migration z between -2 and 2; enough cells	0.86	5436	inactive
GPR141 (G protein-coupled receptor 141)	1	-0.24	migration z between -2 and 2; enough cells	0.76	5652	inactive
RHOF (ras homolog family member F, filopodia associated)	1	0.8	migration z between -2 and 2; enough cells	0.96	6245	inactive
ZNF875 (zinc finger protein 875)	1	0.54	migration z between -2 and 2; enough cells	1.02	7386	inactive
RNF187 (ring finger protein 187)	1	0.64	migration z between -2 and 2; enough cells	0.93	6652	inactive
KIF15 (kinesin family member 15)	1	1.53	migration z between -2 and 2; enough cells	1.1	5479	inactive
MSX1 (msh homeobox 1)	1	-0.6	migration z between -2 and 2; enough cells	0.69	6033	inactive
PYGL (glycogen phosphorylase L)	1	0.75	migration z between -2 and 2; enough cells	0.95	6038	inactive
CTAGE15 (CTAGE family member 15)	1	-0.32	migration z between -2 and 2; enough cells	0.8	5745	inactive
TGFB1 (transforming growth factor beta 1)	1	0.24	migration z between -2 and 2; enough cells	0.85	5005	inactive
SH3BP5L (SH3 binding domain protein 5 like)	1	-1.36	migration z between -2 and 2; enough cells	0.53	6072	inactive
MNMIP1 (manchette microtubule inner protein 1)	1	-0.24	migration z between -2 and 2; enough cells	0.82	5388	inactive
GRSF1 (G-rich RNA sequence binding factor 1)	1	0.79	migration z between -2 and 2; enough cells	1.09	4232	inactive
PSMD1 (proteasome 26S subunit, non-ATPase 1)	1	-0.22	migration z between -2 and 2; enough cells	0.82	6020	inactive
APOBEC3H (apolipoprotein B mRNA editing enzyme catalytic subunit 3H)	1	1.61	migration z between -2 and 2; enough cells	1.3	6336	inactive
POLR1B (RNA polymerase I subunit B)	1	0.74	migration z between -2 and 2; enough cells	1.08	6335	inactive

9 successive records already listed, for reference:
gene symbol	reagent no.	migration robust z-score	migration class with cell-count check	migration relative to mock	nuclei per well, duplicate mean	Outcome
SPART (spartin)	1	1.42	migration z between -2 and 2; enough cells	1.25	5832	inactive
ZNF786 (zinc finger protein 786)	1	1.01	migration z between -2 and 2; enough cells	1.15	5185	inactive
PTPN13 (protein tyrosine phosphatase non-receptor type 13)	1	-0.73	migration z between -2 and 2; enough cells	0.66	6364	inactive
RHBDD2 (rhomboid domain containing 2)	1	-0.56	migration z between -2 and 2; enough cells	0.74	5995	inactive
RXRG (retinoid X receptor gamma)	1	0.29	migration z between -2 and 2; enough cells	0.86	5436	inactive
GPR141 (G protein-coupled receptor 141)	1	-0.24	migration z between -2 and 2; enough cells	0.76	5652	inactive
RHOF (ras homolog family member F, filopodia associated)	1	0.8	migration z between -2 and 2; enough cells	0.96	6245	inactive
ZNF875 (zinc finger protein 875)	1	0.54	migration z between -2 and 2; enough cells	1.02	7386	inactive
RNF187 (ring finger protein 187)	1	0.64	migration z between -2 and 2; enough cells	0.93	6652	inactive

The list goes on.
gene symbol	reagent no.	migration robust z-score	migration class with cell-count check	migration relative to mock	nuclei per well, duplicate mean	Outcome
METRNL (meteorin like, glial cell differentiation regulator)	1	-0.16	migration z between -2 and 2; enough cells	0.84	6398	inactive
CORO2B (coronin 2B)	1	-4.13	migration z below -2; enough cells	-0.19	3732	active
AK4 (adenylate kinase 4)	1	0.57	migration z between -2 and 2; enough cells	0.92	5790	inactive
AK4 (adenylate kinase 4)	2	1.47	migration z between -2 and 2; enough cells	1.27	6712	inactive
LRRC19 (leucine rich repeat containing 19)	1	-0.42	migration z between -2 and 2; enough cells	0.78	6238	inactive
LRRC47 (leucine rich repeat containing 47)	1	0.32	migration z between -2 and 2; enough cells	0.97	4602	inactive
REX1BD (required for excision 1-B domain containing)	1	0.51	migration z between -2 and 2; enough cells	1.02	7330	inactive
OR2S2 (olfactory receptor family 2 subfamily S member 2)	1	0.02	migration z between -2 and 2; enough cells	0.89	6276	inactive
MTERF1 (mitochondrial transcription termination factor 1)	1	0.26	migration z between -2 and 2; enough cells	0.86	7038	inactive
SLC11A2	1	0.36	migration z between -2 and 2; enough cells	0.88	4966	inactive
FRMPD2 (FERM and PDZ domain containing 2)	1	0.22	migration z between -2 and 2; enough cells	0.94	5420	inactive
LCA5 (lebercilin LCA5)	1	-1.29	migration z between -2 and 2; enough cells	0.55	6326	inactive
F12 (coagulation factor XII)	1	-1.48	migration z between -2 and 2; enough cells	0.52	5646	inactive
MOXD1 (monooxygenase DBH like 1)	1	0.91	migration z between -2 and 2; enough cells	0.98	7484	inactive
IL13 (interleukin 13)	1	-1.73	migration z between -2 and 2; enough cells	0.44	4102	inactive
ZNF230 (zinc finger protein 230)	1	1.38	migration z between -2 and 2; enough cells	1.24	6487	inactive
OR6C65 (olfactory receptor family 6 subfamily C member 65)	1	1.34	migration z between -2 and 2; enough cells	1.23	5061	inactive
TNFSF13B (TNF superfamily member 13b)	1	-0.06	migration z between -2 and 2; enough cells	0.87	5994	inactive
RABAC1 (Rab acceptor 1)	1	0.38	migration z between -2 and 2; enough cells	0.99	5795	inactive
WFDC1 (WAP four-disulfide core domain 1)	1	2.42	migration z above 2; enough cells	1.52	5177	active
ARHGEF37 (Rho guanine nucleotide exchange factor 37)	1	-0.32	migration z between -2 and 2; enough cells	0.8	5870	inactive
HSPA2 (heat shock protein family A (Hsp70) member 2)	1	0.13	migration z between -2 and 2; enough cells	0.83	5440	inactive
CETN1 (centrin 1)	1	-1.22	migration z between -2 and 2; enough cells	0.57	3873	inactive
HILPDA (hypoxia inducible lipid droplet associated)	1	-0.06	migration z between -2 and 2; enough cells	0.88	6054	inactive
WAPL (WAPL cohesin release factor)	1	-0.67	migration z between -2 and 2; enough cells	0.71	5770	inactive
RAC1 (Rac family small GTPase 1)	1	0.08	migration z between -2 and 2; enough cells	0.82	5007	inactive
BRWD1 (bromodomain and WD repeat domain containing 1)	1	1.03	migration z between -2 and 2; enough cells	1	6002	inactive
ANKRD46 (ankyrin repeat domain 46)	1	-0.3	migration z between -2 and 2; enough cells	0.81	7778	inactive
RNF133 (ring finger protein 133)	1	0.16	migration z between -2 and 2; enough cells	0.84	5539	inactive
APBA1 (amyloid beta precursor protein binding family A member 1)	1	1.3	migration z between -2 and 2; enough cells	1.23	5992	inactive
FGF3 (fibroblast growth factor 3)	1	1.27	migration z between -2 and 2; enough cells	1.05	5924	inactive
PRPF3 (pre-mRNA processing factor 3)	1	-1.62	under 3300 nuclei; migration not judged	0.47	2876	inactive
ABHD17B (abhydrolase domain containing 17B, depalmitoylase)	1	1.17	migration z between -2 and 2; enough cells	1.03	6510	inactive
DNMT1 (DNA methyltransferase 1)	1	-0.68	migration z between -2 and 2; enough cells	0.68	4630	inactive
TACR2 (tachykinin receptor 2)	1	-0.57	migration z between -2 and 2; enough cells	0.7	7422	inactive
SLC4A2	1	-0.86	migration z between -2 and 2; enough cells	0.64	3518	inactive
OGFR (opioid growth factor receptor)	1	-1.46	migration z between -2 and 2; enough cells	0.52	3830	inactive
